Experimental data: PubChem BioAssay AID1224830 (NIAID, 2016)
The deposit covers about 18,000 reagents; below is a part drawn at random. In the full data, about 2,900 (16%) were called active. 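Calls are made per well; low scores hint the gene aids the LPS response, high scores that it dampens it.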 Repeated entries: four replicate wells of each siRNA pool.

Test: 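Regulators of TLR4 signalling towards TNF-alpha in macrophage-like cells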 (primary screen)
Cells: human THP-1 monocytic leukaemia cells, TNF dual-luciferase reporter clone, PMA-differentiated to macrophage-like cells
Reagents: siRNA pool against human genes, 50 nM
Duration: LPS for 4 h, given about 3 days after siRNA transfection
Conditions: bacterial LPS (TLR4 ligand), 10 ng/ml
Read-out: 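Ratio of firefly to renilla light, scaled to the plate median and expressed as a robust z-score per replicate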
Reading the numbers: TNF reporter robust z-score: higher = stronger TNF reporter response to LPS
Rule for the call: 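Each well counts as active if its z-score is over 2.8 or under -1.5; controls are left without a call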

TRPM2 (GeneID 7226) [SID315451983] — TNF reporter robust z-score = 0.18; Call = inactive
TRPM2 (GeneID 7226) [SID315451983] — TNF reporter robust z-score = 0.99; Call = inactive
TRPM2 (GeneID 7226) [SID315451983] — TNF reporter robust z-score = 0.36; Call = inactive
TRPM2 (GeneID 7226) [SID315451983] — TNF reporter robust z-score = -0.29; Call = inactive
DLGAP1-AS1 (GeneID 649446) [SID315465121] — TNF reporter robust z-score = -0.25; Call = inactive
DLGAP1-AS1 (GeneID 649446) [SID315465121] — TNF reporter robust z-score = -0.35; Call = inactive
DLGAP1-AS1 (GeneID 649446) [SID315465121] — TNF reporter robust z-score = -0.17; Call = inactive
DLGAP1-AS1 (GeneID 649446) [SID315465121] — TNF reporter robust z-score = -0.61; Call = inactive
SPAG5 (GeneID 10615) [SID315454237] — TNF reporter robust z-score = -2.06; Call = active
SPAG5 (GeneID 10615) [SID315454237] — TNF reporter robust z-score = -1.62; Call = active
SPAG5 (GeneID 10615) [SID315454237] — TNF reporter robust z-score = -1.98; Call = active
SPAG5 (GeneID 10615) [SID315454237] — TNF reporter robust z-score = -1.55; Call = active
PPP1R27 (GeneID 116729) [SID315461387] — TNF reporter robust z-score = -0.18; Call = inactive
PPP1R27 (GeneID 116729) [SID315461387] — TNF reporter robust z-score = -0.43; Call = inactive
PPP1R27 (GeneID 116729) [SID315461387] — TNF reporter robust z-score = 2.91; Call = active
PPP1R27 (GeneID 116729) [SID315461387] — TNF reporter robust z-score = -0.3; Call = inactive
ADAT3 (GeneID 113179) [SID315461178] — TNF reporter robust z-score = -0.11; Call = inactive
ADAT3 (GeneID 113179) [SID315461178] — TNF reporter robust z-score = 0.03; Call = inactive
ADAT3 (GeneID 113179) [SID315461178] — TNF reporter robust z-score = -0.84; Call = inactive
ADAT3 (GeneID 113179) [SID315461178] — TNF reporter robust z-score = -0.23; Call = inactive
